This note sets out measurements from US8735417B2, “Aminopyrimidines as Syk inhibitors” (Merck Sharp & Dohme Corp., priority 2009, dated 2014).

In the assay the target is recombinant human GST-SYK (Homo sapiens, UniProt P43405). The assay can be described thus: Homogeneous Time-Resolved Fluorescence (HTRF) assay for the recombinant human SYK enzyme. The settings on record: read-out: rhSYK Activity (IC50); recombinant human GST-SYK 5 pM, ATP 25 μM, 10-dose titration. As for the experimental part: Homogeneous Time-Resolved Fluorescence (HTRF) Assay for the Recombinant Human SYK Enzyme:
A recombinant GST-hSYK fusion protein was used to measure potency of compounds to inhibit human SYK activity. The recombinant human GST-SYK (Carna Biosciences #08-176) (5 pM final concentration) was incubated with various concentrations of the inhibitor diluted in DMSO (0.1% final concentration) for 10 minutes at room temperature in 15 mM Tris-HCl (pH 7.5), 0.01% tween 20, 2 mM DTT in 384 well plate format. To initiate the reaction the biotinylated substrate peptide (250 nM final concentration) that contains the phosphorylation site for SYK was added with magnesium (5 mM final concentration) and ATP (25 μM final concentration). Final volume of the reaction was 10 μL. Phosphorylation of the peptide was allowed to proceed for 45′ at room temperature. To quench the reaction and detect the phosphorylated product, 2 nM of a Europium-atiti-phosphotyrosine antibody (Perkin Elmer #AD0161) and 70 nM SA-APC (Perkin-Elmer #CR130-100) were added together in 15 mM Tris pH 7.5, 40 mM EDTA, 0.01% tween 20. Final volume of the quenching solution was 10 μL. The resulting HTRF signal was measured after 30 minutes on a EnVision (Perkin-Elmer) reader using a time-resolved fluorescence protocol. […]
In general terms: In TR-FRET formats the signal depends on donor and acceptor labels being close together.

The match of structure and compound is tentative.

As usually defined, the IC50 is the concentration at which inhibition is half-maximal. As for `O=C(O)CNc1ncc(-c2cccc(Nc3nccc(C(F)(F)F)n3)c2)s1`, the IC50 is < 100 nM.
